# In the supplement of paper PMC11732987, “Enantioselective OTUD7B fragment discovery through chemoproteomics screening and high-throughput optimisation” (Communications Chemistry, 2025):
# Amino acid sequences for entries named in this document (tags omitted). A change or cut given only in a name is not applied to a line headed by its entry. Residues count along the entry.
# UniProt Q7L2J0, 234-257: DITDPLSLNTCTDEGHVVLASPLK
# UniProt P21741: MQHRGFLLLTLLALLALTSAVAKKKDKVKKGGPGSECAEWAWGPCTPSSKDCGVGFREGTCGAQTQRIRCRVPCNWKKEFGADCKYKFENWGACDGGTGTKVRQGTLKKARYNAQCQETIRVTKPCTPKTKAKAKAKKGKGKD
# UniProt A0JLT2: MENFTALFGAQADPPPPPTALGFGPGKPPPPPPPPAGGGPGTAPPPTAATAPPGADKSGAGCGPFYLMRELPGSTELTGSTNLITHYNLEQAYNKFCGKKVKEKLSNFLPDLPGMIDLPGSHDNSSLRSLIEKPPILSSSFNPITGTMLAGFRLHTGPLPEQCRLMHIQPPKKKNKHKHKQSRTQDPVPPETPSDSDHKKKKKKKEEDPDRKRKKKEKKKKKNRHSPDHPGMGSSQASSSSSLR
# UniProt Q96EN8: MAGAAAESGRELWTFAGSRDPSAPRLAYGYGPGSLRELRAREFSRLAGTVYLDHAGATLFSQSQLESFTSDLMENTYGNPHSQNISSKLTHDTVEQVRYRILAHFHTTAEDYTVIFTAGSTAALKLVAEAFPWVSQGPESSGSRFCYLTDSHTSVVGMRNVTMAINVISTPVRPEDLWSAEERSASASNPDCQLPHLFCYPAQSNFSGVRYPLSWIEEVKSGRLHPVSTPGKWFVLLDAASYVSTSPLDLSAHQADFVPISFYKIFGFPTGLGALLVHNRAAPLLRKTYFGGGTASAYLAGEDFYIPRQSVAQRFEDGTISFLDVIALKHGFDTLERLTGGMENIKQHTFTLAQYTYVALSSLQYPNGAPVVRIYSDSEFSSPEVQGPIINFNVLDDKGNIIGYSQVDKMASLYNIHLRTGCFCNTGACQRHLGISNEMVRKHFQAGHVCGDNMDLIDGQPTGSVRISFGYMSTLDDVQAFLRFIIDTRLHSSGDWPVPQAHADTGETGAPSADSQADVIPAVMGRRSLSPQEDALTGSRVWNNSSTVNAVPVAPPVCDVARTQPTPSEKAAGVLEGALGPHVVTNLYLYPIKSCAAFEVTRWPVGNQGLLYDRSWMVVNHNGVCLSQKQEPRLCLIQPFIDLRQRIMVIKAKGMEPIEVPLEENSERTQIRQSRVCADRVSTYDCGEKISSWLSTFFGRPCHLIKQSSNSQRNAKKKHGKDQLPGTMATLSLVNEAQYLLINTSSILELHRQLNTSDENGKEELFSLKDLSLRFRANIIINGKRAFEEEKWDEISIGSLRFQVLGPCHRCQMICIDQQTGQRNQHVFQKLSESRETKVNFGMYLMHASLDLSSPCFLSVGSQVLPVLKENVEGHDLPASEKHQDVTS
# UniProt Q9BPX6: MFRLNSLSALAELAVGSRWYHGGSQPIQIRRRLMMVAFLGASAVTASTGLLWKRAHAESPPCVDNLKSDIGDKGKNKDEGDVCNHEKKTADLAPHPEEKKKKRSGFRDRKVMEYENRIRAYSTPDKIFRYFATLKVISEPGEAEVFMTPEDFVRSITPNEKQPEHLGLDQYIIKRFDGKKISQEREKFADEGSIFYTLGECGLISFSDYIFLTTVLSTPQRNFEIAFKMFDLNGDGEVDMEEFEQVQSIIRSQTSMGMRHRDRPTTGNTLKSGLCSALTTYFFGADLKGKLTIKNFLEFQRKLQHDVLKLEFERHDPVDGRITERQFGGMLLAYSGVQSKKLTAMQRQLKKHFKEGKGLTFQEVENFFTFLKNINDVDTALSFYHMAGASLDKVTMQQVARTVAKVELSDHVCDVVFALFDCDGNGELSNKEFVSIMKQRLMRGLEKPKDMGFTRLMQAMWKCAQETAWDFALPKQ
# UniProt Q9NVC6: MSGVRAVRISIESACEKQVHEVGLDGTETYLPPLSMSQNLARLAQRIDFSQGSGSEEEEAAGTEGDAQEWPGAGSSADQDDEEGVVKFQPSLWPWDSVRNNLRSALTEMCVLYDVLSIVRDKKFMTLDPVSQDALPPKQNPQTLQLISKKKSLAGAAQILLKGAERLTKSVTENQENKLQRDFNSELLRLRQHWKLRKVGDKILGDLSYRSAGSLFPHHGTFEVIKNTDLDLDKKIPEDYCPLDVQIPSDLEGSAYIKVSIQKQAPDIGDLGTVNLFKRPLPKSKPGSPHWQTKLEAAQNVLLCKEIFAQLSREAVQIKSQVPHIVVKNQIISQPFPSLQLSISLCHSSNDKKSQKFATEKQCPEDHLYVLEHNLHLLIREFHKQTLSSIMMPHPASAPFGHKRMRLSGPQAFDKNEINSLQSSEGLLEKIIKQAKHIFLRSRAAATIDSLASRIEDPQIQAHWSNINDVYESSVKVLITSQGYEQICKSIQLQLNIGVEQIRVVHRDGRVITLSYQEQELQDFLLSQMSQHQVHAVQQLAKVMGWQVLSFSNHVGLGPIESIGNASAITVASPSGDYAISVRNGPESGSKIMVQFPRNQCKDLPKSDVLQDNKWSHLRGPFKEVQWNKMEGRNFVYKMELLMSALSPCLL
# UniProt Q9UHC7: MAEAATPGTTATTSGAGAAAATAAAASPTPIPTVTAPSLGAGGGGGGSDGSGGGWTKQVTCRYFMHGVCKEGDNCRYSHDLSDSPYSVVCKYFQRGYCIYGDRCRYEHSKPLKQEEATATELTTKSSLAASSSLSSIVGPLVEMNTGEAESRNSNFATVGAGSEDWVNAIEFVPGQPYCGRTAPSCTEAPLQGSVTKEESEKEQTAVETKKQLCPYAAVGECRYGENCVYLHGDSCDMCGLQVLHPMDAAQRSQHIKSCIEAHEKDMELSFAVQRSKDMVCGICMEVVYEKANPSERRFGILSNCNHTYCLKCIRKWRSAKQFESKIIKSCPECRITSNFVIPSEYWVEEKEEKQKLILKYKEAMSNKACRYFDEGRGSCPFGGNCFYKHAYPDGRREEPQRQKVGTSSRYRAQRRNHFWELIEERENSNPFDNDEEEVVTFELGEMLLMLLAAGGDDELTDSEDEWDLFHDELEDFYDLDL
# UniProt Q03111: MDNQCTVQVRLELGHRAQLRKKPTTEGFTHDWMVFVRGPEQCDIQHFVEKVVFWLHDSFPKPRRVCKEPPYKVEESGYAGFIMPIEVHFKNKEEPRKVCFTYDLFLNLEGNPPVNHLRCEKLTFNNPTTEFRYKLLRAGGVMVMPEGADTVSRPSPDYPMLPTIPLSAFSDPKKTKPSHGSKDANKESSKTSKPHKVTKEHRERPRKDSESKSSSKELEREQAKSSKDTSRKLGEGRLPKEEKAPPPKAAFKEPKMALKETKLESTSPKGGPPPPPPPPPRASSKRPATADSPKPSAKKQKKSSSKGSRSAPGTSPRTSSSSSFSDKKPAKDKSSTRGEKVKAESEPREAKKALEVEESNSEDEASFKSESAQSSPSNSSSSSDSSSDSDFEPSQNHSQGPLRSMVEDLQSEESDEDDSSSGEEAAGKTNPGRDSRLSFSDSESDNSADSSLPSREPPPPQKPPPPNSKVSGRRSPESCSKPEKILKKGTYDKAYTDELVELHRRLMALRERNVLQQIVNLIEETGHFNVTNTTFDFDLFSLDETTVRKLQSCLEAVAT
# UniProt P26572: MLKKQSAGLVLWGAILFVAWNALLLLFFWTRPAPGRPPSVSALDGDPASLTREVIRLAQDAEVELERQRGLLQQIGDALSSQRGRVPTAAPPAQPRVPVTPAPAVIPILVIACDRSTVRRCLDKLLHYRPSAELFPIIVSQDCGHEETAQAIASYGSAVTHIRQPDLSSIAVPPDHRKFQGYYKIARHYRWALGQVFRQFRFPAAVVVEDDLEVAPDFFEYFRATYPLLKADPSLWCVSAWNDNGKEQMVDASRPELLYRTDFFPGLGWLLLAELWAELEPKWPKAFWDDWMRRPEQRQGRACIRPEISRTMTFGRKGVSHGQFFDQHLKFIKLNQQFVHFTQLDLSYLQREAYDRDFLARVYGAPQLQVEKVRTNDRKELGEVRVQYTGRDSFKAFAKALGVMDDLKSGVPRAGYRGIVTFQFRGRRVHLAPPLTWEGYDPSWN
# UniProt Q8IWI9, 36-59: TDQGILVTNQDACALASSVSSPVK
# UniProt Q6NTE8: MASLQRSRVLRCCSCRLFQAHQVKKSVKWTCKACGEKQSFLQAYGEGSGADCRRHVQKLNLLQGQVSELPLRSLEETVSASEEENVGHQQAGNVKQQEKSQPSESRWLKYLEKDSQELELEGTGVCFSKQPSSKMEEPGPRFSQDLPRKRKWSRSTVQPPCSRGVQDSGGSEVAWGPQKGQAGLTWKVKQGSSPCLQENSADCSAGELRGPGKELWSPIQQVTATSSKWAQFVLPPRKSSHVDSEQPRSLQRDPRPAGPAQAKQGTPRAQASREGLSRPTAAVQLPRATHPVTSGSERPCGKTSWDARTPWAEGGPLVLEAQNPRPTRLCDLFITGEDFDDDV
# UniProt Q00013, 228-247: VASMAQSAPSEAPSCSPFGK
# UniProt P29372: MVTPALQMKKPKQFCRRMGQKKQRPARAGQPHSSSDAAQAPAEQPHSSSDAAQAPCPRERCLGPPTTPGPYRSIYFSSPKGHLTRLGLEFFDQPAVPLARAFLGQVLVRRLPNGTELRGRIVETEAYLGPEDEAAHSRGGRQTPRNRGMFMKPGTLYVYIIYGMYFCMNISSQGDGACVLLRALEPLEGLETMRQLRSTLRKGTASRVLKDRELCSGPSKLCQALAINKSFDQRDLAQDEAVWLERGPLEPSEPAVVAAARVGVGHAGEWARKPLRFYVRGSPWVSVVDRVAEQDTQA
# UniProt Q96IZ6: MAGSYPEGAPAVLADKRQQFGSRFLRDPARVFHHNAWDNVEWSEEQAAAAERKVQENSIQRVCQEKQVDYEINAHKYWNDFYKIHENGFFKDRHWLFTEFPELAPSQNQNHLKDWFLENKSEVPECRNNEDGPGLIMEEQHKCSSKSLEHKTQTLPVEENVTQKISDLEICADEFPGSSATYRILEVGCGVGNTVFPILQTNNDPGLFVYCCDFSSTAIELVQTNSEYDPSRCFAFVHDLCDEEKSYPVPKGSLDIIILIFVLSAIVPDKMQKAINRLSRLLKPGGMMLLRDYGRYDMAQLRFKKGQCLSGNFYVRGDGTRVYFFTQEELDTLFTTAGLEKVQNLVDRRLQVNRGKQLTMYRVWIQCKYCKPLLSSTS
# UniProt Q15648, whole entry, looked up: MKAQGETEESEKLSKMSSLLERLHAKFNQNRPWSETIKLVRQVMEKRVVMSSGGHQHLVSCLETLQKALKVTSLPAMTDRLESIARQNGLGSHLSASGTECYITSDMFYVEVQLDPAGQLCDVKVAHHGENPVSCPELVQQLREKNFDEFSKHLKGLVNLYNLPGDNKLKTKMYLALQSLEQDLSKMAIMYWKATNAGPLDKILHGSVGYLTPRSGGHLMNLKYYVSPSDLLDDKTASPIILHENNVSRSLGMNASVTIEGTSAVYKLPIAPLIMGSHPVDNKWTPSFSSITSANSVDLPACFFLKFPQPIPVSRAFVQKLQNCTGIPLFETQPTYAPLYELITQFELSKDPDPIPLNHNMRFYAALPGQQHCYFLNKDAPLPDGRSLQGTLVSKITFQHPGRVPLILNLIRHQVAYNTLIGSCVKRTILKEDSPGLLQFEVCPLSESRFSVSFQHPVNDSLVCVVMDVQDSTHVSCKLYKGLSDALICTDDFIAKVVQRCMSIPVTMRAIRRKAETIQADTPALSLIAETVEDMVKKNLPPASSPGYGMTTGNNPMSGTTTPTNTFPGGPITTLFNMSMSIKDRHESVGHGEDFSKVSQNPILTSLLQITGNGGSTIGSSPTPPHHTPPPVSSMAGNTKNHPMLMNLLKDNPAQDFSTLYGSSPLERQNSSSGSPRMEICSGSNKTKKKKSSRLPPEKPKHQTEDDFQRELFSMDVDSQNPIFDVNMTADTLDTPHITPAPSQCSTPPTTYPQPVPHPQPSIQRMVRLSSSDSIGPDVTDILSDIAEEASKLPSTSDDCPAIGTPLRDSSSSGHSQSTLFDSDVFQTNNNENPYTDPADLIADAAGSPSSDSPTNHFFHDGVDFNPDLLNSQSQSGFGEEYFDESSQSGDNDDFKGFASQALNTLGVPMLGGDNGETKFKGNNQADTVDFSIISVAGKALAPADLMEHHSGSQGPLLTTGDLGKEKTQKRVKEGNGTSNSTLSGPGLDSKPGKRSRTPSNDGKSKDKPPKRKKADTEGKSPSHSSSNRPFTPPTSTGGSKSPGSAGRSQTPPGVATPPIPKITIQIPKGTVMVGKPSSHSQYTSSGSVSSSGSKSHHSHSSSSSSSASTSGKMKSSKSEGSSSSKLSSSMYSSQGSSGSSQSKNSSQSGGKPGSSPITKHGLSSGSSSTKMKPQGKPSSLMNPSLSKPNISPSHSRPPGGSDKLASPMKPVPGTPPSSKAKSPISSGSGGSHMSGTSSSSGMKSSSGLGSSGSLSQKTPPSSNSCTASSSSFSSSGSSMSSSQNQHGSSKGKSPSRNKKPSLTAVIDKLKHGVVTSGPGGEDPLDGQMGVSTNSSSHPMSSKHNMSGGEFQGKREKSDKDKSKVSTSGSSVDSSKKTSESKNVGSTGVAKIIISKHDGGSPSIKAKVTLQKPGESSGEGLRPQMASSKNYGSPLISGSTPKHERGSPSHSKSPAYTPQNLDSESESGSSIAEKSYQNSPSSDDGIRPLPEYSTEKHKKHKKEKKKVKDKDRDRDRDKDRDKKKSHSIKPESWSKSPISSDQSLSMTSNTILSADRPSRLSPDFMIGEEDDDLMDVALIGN
# UniProt Q15648, 428-449: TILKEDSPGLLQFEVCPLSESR
# UniProt Q14149, 445-464: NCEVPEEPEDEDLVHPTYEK
# Some of the results follow. The data scatter; read single values as rough.
# Experiments:
# [1] = compound: ClCC(=O)N[C@@H]1CCCc2ccccc12; experiment: log2 mean competition ratio of IA-DTB cysteine labelling (DMSO/compound) (log2 ratio); higher = stronger cysteine engagement by compound; settings: treatment time: 4 h, cell line lysate: HEK293T
# Method: (§1)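 IA-DTB competitive cysteine chemoproteomics in HEK293T RIPA lysate. Lysates were treated with compound 29 or 30 at 50 or 200 µM for 4 h, then IA-DTB (500 µM, 1 h), trypsin-digested, NeutrAvidin-enriched and analysed by diaPASEF. Competition ratio = intensity DMSO / intensity compound (n=4 treated, n=64 DMSO); binding: mean log2 CR ≥ 1 and p ≤ 0.05 plus QC filters. Target is the cysteine site.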
# [2] = compound: ClCC(=O)N[C@H]1CCCc2ccccc12; experiment: as above; settings: treatment time: 4 h, cell line lysate: HEK293T
# Method: as §1
Target,log2 mean competition ratio ([1]; 50 µM),log2 mean competition ratio ([1]; 200 µM),log2 mean competition ratio ([2]; 50 µM),log2 mean competition ratio ([2]; 200 µM)
MPP2 C334,-0.162,-0.00277,,
MED16 C267 (UniProt Q9Y2X0),-0.035,0.117,,
MICOS10 C13 (UniProt Q5TGZ0),-0.0389,-0.153,,
MED23 C222 (UniProt Q9ULK4),-0.0147,0.163,,
MKLN1 C560 (UniProt Q9UL63),-0.0569,-0.3,,
MORC4 C349,0.458,-0.016,,
MEPCE C244 (UniProt Q7L2J0),0.0576,-0.267,,
MLH1 C494 (UniProt P40692),-0.204,-0.129,,
MED13 C1274 (UniProt Q9UHV7),-0.215,0.325,,
"MIDEAS C502, A0A1C7CYX1",0.148,-0.0915,,
MDK C52 (UniProt P21741),0.063,0.124,,
MED19 C163 (UniProt A0JLT2),-0.0525,0.176,,
MOCOS C686 (UniProt Q96EN8),-0.169,0.192,,
MICU1 C83 (UniProt Q9BPX6),-0.105,0.188,,
MDN1 C2816 (UniProt Q9NU22),0.418,0.476,,
MED17 C488 (UniProt Q9NVC6),-0.251,0.0977,,
MMTAG2 C103 (UniProt Q9BU76),-0.0911,-0.109,,
MIPEP C142 (UniProt Q99797),-0.389,0.137,,
MIOS C748 (UniProt Q9NXC5),0.219,0.0598,,
MKRN1 C186 (UniProt Q9UHC7),-0.12,0.0888,,

Target,log2 mean competition ratio ([1]; 50 µM),log2 mean competition ratio ([1]; 200 µM),log2 mean competition ratio ([2]; 50 µM),log2 mean competition ratio ([2]; 200 µM)
MED17 C15 (UniProt Q9NVC6),-0.16,-0.295,,
MND1 C62 (UniProt Q9BWT6),-0.447,-0.4,,
METTL7A C96 (UniProt Q9H8H3),0.0182,0.0841,,
MKI67 C226 (UniProt P46013),-0.00679,-0.0314,,
MLLT1 C5 (UniProt Q03111),0.0733,-0.174,,
MGAT1 C303 (UniProt P26572),0.082,-0.0156,,
MIA2 C755 (UniProt Q96PC5),-0.334,-0.00536,,
MGA C48 (UniProt Q8IWI9),-0.258,0.00404,,
MIS18BP1 C206,-0.256,-0.0567,,
MRNIP C126 (UniProt Q6NTE8),-0.0774,0.205,,
MON2 C373 (UniProt Q7Z3U7),0.158,-0.0166,,
MEMO1 C88 (UniProt Q9Y316),-0.328,0.0424,,
MKLN1 C411 (UniProt Q9UL63),0.219,0.013,,
MPP1 C242 (UniProt Q00013),0.00346,-0.0605,,
MDN1 C882 (UniProt Q9NU22),0.438,0.425,,
MPG C61 (UniProt P29372),0.116,-0.0629,,
MIS18BP1 C528,-0.0501,-0.125,,
MED23 C1069 (UniProt Q9ULK4),0.0438,0.131,0.588,0.456
"MIDEAS C442, A0A1C7CYX1",-0.0236,0.11,,
MFHAS1 C385 (UniProt Q9Y4C4),-0.0215,0.356,,

Target,log2 mean competition ratio ([1]; 50 µM),log2 mean competition ratio ([1]; 200 µM),log2 mean competition ratio ([2]; 50 µM),log2 mean competition ratio ([2]; 200 µM)
MID1 C266 (UniProt O15344),-0.57,0.334,,
METTL2A C126 (UniProt Q96IZ6),-0.129,0.108,0.199,0.254
METTL2A C171 (UniProt Q96IZ6),-0.148,0.187,-0.0179,0.104
MKI67 C773 (UniProt P46013),-0.0246,0.0637,,
MKRN2 C337 (UniProt Q9H000),-0.00443,-0.15,,
MIB1 C342 (UniProt Q86YT6),0.147,0.649,0.25,0.0408
METTL16 C432 (UniProt Q86W50),-0.0623,0.265,,
MIA2 C1236 (UniProt Q96PC5),0.197,0.00197,0.0645,0.216
MICAL2 C703 (UniProt O94851),0.0315,-0.0326,,
MED1 C501 (UniProt Q15648),0.107,0.0212,,
MINPP1 C232 (UniProt Q9UNW1),-0.341,0.234,,
MMTAG2 C58 (UniProt Q9BU76),-0.0214,-0.059,,
MDC1 C92 (UniProt Q14676),-0.316,-0.153,,
MORC3 C671 (UniProt Q14149),-0.35,-0.201,,
MDN1 C4192 (UniProt Q9NU22),-0.0895,-0.0136,,
MLST8 C298 (UniProt Q9BVC4),0.371,0.196,0.061,0.0552
MORC3 C446 (UniProt Q14149),-0.403,0.0789,-0.105,-0.0518
MED1 C443 (UniProt Q15648),-0.0272,0.531,-0.325,0.125

# Rewritten with bars between the fields: part of the list above.
Target | log2 mean competition ratio ([1]; 50 µM) | log2 mean competition ratio ([1]; 200 µM) | log2 mean competition ratio ([2]; 50 µM) | log2 mean competition ratio ([2]; 200 µM)
MID1 C266 (UniProt O15344) | -0.57 | 0.334 |  | 
MKRN2 C337 (UniProt Q9H000) | -0.00443 | -0.15 |  | 
METTL16 C432 (UniProt Q86W50) | -0.0623 | 0.265 |  | 
MORC3 C671 (UniProt Q14149) | -0.35 | -0.201 |  | 
MED1 C443 (UniProt Q15648) | -0.0272 | 0.531 | -0.325 | 0.125
